Measurements reported in PubChem BioAssay AID1508597 (Cure First, 2020).

Purpose: 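Genes whose silencing sensitises or protects ovarian cancer cells against rucaparib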 (primary screen)
Cell system: human ovarian carcinoma lines grown from tumours: OCI-P5x (papillary serous) and OCI-C5x (clear cell)
Reagents: siRNA pool against human genes, 1.25 pmol siRNA per well
Time to read-out: 72 h or 96 h, depending on the cell culture
Conditions: rucaparib 20 µM (about IC30) or vehicle, present until read-out
Rucaparib or vehicle: Rucaparib
Cell line: OCI-C5x (clear cell)
Measured: 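ATP luminescence measured at 72 or 96 h according to the culture, then normalised and expressed as percent viability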
Direction: viability, normalised: higher = more viable cells remaining
Active means: 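a well counts as a hit if its normalised viability is under 80 percent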
Calls: active = viability under 80%; inactive = viability 80% or more
Shown is a random part of the about 2,100 reagents, in one setting of the screen. 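Calls flag viability under 80% in either arm, not effects specific to rucaparib; the reference for percent is not stated.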 A number with no mark means an inactive call. Some reagents were tested in more than one well and are listed for each. The record does not give: the 100% reference.

Gene	technical replicate	viability, normalised (%)
HSD17B4 (hydroxysteroid 17-beta dehydrogenase 4)	1	53.1 (active)
HSD17B4 (hydroxysteroid 17-beta dehydrogenase 4)	2	65 (active)
HSD17B4 (hydroxysteroid 17-beta dehydrogenase 4)	3	70.3 (active)
MTA2 (metastasis associated 1 family member 2)	1	43.2 (active)
MTA2 (metastasis associated 1 family member 2)	2	59.3 (active)
MTA2 (metastasis associated 1 family member 2)	3	48.6 (active)
CLDN3 (claudin 3)	1	43.6 (active)
CLDN3 (claudin 3)	2	45.1 (active)
CLDN3 (claudin 3)	3	46.3 (active)
CDH1 (cadherin 1)	1	62.7 (active)
CDH1 (cadherin 1)	2	60.1 (active)
CDH1 (cadherin 1)	3	42.2 (active)
L3MBTL1 (L3MBTL histone methyl-lysine binding protein 1)	1	44.5 (active)
L3MBTL1 (L3MBTL histone methyl-lysine binding protein 1)	2	49.8 (active)
L3MBTL1 (L3MBTL histone methyl-lysine binding protein 1)	3	44.4 (active)
VAX2 (ventral anterior homeobox 2)	1	70.3 (active)
VAX2 (ventral anterior homeobox 2)	2	61.5 (active)
VAX2 (ventral anterior homeobox 2)	3	52.1 (active)
KDM4A (lysine demethylase 4A)	1	44.1 (active)
KDM4A (lysine demethylase 4A)	2	23.3 (active)
KDM4A (lysine demethylase 4A)	3	38.7 (active)
PAPSS1 (3'-phosphoadenosine 5'-phosphosulfate synthase 1)	1	40.9 (active)
PAPSS1 (3'-phosphoadenosine 5'-phosphosulfate synthase 1)	2	51.1 (active)
PAPSS1 (3'-phosphoadenosine 5'-phosphosulfate synthase 1)	3	63.4 (active)
ITGB5 (integrin subunit beta 5)	1	36.2 (active)
ITGB5 (integrin subunit beta 5)	2	46.2 (active)
ITGB5 (integrin subunit beta 5)	3	35.5 (active)

Targets above whose target name starts with K or k (3):
Gene	technical replicate	viability, normalised (%)
KDM4A (lysine demethylase 4A)	1	44.1 (active)
KDM4A (lysine demethylase 4A)	2	23.3 (active)
KDM4A (lysine demethylase 4A)	3	38.7 (active)

More results follow:
Gene	technical replicate	viability, normalised (%)
SRPK2 (SRSF protein kinase 2)	1	61.1 (active)
SRPK2 (SRSF protein kinase 2)	2	50.1 (active)
SRPK2 (SRSF protein kinase 2)	3	54.2 (active)
PRKX (protein kinase cAMP-dependent X-linked catalytic subunit)	1	58.3 (active)
PRKX (protein kinase cAMP-dependent X-linked catalytic subunit)	2	58.3 (active)
PRKX (protein kinase cAMP-dependent X-linked catalytic subunit)	3	45 (active)
KMT5A (lysine methyltransferase 5A)	1	27.9 (active)
KMT5A (lysine methyltransferase 5A)	2	21.5 (active)
KMT5A (lysine methyltransferase 5A)	3	21.1 (active)
CDK18 (cyclin dependent kinase 18)	1	55.8 (active)
CDK18 (cyclin dependent kinase 18)	2	51.8 (active)
CDK18 (cyclin dependent kinase 18)	3	54.8 (active)
LEF1 (lymphoid enhancer binding factor 1)	1	46.8 (active)
LEF1 (lymphoid enhancer binding factor 1)	2	33.3 (active)
LEF1 (lymphoid enhancer binding factor 1)	3	43.8 (active)
TRDMT1 (tRNA aspartic acid methyltransferase 1)	1	63.5 (active)
TRDMT1 (tRNA aspartic acid methyltransferase 1)	2	64.3 (active)
TRDMT1 (tRNA aspartic acid methyltransferase 1)	3	43.9 (active)
TP53BP1 (tumor protein p53 binding protein 1)	1	56.3 (active)
TP53BP1 (tumor protein p53 binding protein 1)	1	69.4 (active)
TP53BP1 (tumor protein p53 binding protein 1)	2	88.5
TP53BP1 (tumor protein p53 binding protein 1)	2	65.1 (active)
TP53BP1 (tumor protein p53 binding protein 1)	3	65.5 (active)
TP53BP1 (tumor protein p53 binding protein 1)	3	55.7 (active)
NRCAM (neuronal cell adhesion molecule)	1	43.1 (active)
NRCAM (neuronal cell adhesion molecule)	2	31.6 (active)
NRCAM (neuronal cell adhesion molecule)	3	39.1 (active)
FAAP24 (FA core complex associated protein 24)	1	40.1 (active)
FAAP24 (FA core complex associated protein 24)	2	50.5 (active)
FAAP24 (FA core complex associated protein 24)	3	50.6 (active)
TRIM28 (tripartite motif containing 28)	1	55.3 (active)
TRIM28 (tripartite motif containing 28)	1	41.9 (active)
TRIM28 (tripartite motif containing 28)	2	66 (active)
TRIM28 (tripartite motif containing 28)	2	44.3 (active)
TRIM28 (tripartite motif containing 28)	3	53.3 (active)
TRIM28 (tripartite motif containing 28)	3	33.7 (active)
IL23A (interleukin 23 subunit alpha)	1	50 (active)
IL23A (interleukin 23 subunit alpha)	2	35.7 (active)
IL23A (interleukin 23 subunit alpha)	3	43.6 (active)
MUC16 (mucin 16, cell surface associated)	1	61.9 (active)
MUC16 (mucin 16, cell surface associated)	2	77.9 (active)
MUC16 (mucin 16, cell surface associated)	3	47.8 (active)
SMG1	1	58.1 (active)
SMG1	2	66.6 (active)
SMG1	3	52.2 (active)
ATAD2 (ATPase family AAA domain containing 2)	1	71.7 (active)
ATAD2 (ATPase family AAA domain containing 2)	2	51.8 (active)
ATAD2 (ATPase family AAA domain containing 2)	3	43 (active)
